Data taken from patent US20220306722A1.
No constants are given. Whether binding was seen depends on the method and setting. Some binding calls cover weakened binding; strength is not graded here.

Molecular target: recombinant HLA-DQ8 protein (human)
Assay: DELFIA immunoassay, His-tagged HLA-DQ8 captured on nickel plates, Europium-streptavidin detection

B1: biotinylated InsB:9-23 peptide (peptide)
peptide: HLVEALYLVCGERGG
modifications: N-terminal biotin
binding: binds
